# Experimental data taken from patent US11779597B2, “Method of treating Parkinson's and other neurodegenerative diseases” (Vector Vitale IP LLC, priority 2019, dated 2023).
# Marks after values point to notes of the source that are not given here. A unit is not stated for every read-out.
# Columns and labels:
# Type in all cases: in vivo
# [1] = Body weight in LPS rat models of parkinsonism; conditions: sham-operated
# Procedure: (§1) On the 1st day of the experiment, rats were either operated to model hemi-parkinsonism or sham operated. From the 9th to the 18th day of the experiment, the animals were injected either deuterium-depleted water or the test substance, according to their allocation into groups, for 10 days. On the 8th day of the experiment (before initiation of treatment—apomorphine test I) and on the 21st day of the experiment (after the end of administering the test substance —apomorphine test II) the animals underwent an apomorphine test to analyze the development of hemi-parkinsonism which correlates with the number of destroyed dopaminergic neurons. In addition, a follow-up analysis of fecal water content was carried out, i.e., before the start of treatment on the 8th day after the operation, as well as on the 21st (after the end of treatment) and the 28th day (before autopsy). On the 24th day of the experiment, behavioral tests were carried out in all groups. All animals were weighed before autopsy. During autopsy, ⅔ of animals from each group were sacrificed by cervical dislocation and brain and blood samples were collected for further biochemical and immunological tests. ⅓ of the animals were used for further immunohistochemical studies of the brain; for this purpose, under anesthesia, a procedure of fast, controlled and uniform fixation of the whole body of the animal was performed using 4% paraformaldehyde perfused through the heart of the rat to obtain the best preservation of the brain architecture for immunohistochemistry. Gage G J, et al., J Vis Exp. 2012 Jul. 30; (65).
# [2] = test system: circulating monocytes and granulocytes; test: Functional and phenotypic properties of circulating phagocytes in LPS rat models; conditions: sham-operated animals
# Procedure: as §1
# To assess the anti-inflammatory and immunomodulating effects of the test substance, microglia and peritoneal macrophages were isolated. Phenotypic and functional features of peripheral blood phagocytes were evaluated without their fractioning (using whole blood). […]
# Phagocytic activity of microglia, peritoneal macrophages and peripheral blood phagocytes was analyzed on a flow cytometer using FITC-labeled S. aureus Wood 46 cells as an object of phagocytosis. […]
# Oxidative metabolism of phagocytes of various localization was analyzed by flow cytometry using the cell-permeant 2′7′-dichlorodihydrofluorescein-diacetate (DHP) (carboxy-H2DCFDA, Invitrogen, USA) which is converted by intracellular esterases to the nonfluorescent membrane-impermeable carboxy-H2DCF form.
# The phenotypic profile of phagocytes of various localization was characterized by the expression of markers of functional maturity and metabolic polarization (CD206, CD80 and CD86), which was determined by flow cytometry and the use of monoclonal antibodies of appropriate specificity marked with fluorescent dyes (Abcam, Becton Dickinson).
# [3] = test system: LPS rat models of Parkinson's disease; test: Open field test; conditions: SO + ^64Zn-asp, Gr. III
# Excerpt: Method. The open field test is a technique commonly used to measure locomotor activity of rodents and their level of exploratory activity in an unfamiliar environment, as well as assess the levels of fear of novelty, anxiety or an increase in orientation response in rodents (Denenberg V H, et al., Physiology and Behavior, 1969; 4:403-406; Pellow S et al., J Neurosci Methods. 1985; 14(3):149-67). Behavioral patterns measured in the open field test include: distance travelled in the outer and inner perimeter, duration of time spent in the outer and inner perimeter, the total distance travelled and a percentage of the number of internal squares crossed compared to the total number of squares.
# The open field was a square chamber 100×100 cm in size and with walls 60 cm high. The chamber was illuminated by two LED bulbs, 60 watts each, hanging at a height of 2 m. An IP camera was used to record the rodent movement. The MATLAB-based software was used to analyze the parameters. The statistical analysis was performed using GraphPad Prism. Significance was set at <0.005. The data collected from the open field were analyzed using One-way ANOVA (Tukey test or Dunnett test) and Unpaired t-test or Mann-Whitney.
# Data analysis and interpretation. A novel environment in which an animal finds itself evokes conflict between fear and a desire to explore this environment. […]
# [4] = test system: LPS rat models of Parkinson's disease; test: Elevated plus maze; conditions: SO + ^64Zn-asp, Group III
# Excerpt: Method. The elevated plus maze is a widely used behavioral assay for rodents that makes it possible to assess sedative or anxiogenic effects of agents and to define mechanisms underlying anxiety-related behavior, as well as to evaluate the motor activity of rats and levels of their exploratory activity that may correlate with the data collected in the open field test. Campos A C, et al., Braz J Psychiatry. 2013; 35 Suppl 2:S101-11. doi: 10.1590/1516-4446-2013-1139; Braun A A, et al., Neurobiol Learn Mem. 2012; 97(4):402-8. doi: 10.1016/j.nlm.2012.03.004). Behavior was assessed according to the following main parameters: the total distance travelled, the number of entries into each arm, the time spent in each arm, the total number of entries and percent of entries. […] Throughout the experiment, animals had free access to food and water. Before starting measurements, animals were given time to adapt to new an environment to reduce stress.
# The entire apparatus was elevated 50 cm above the floor. The central part of the junction was a 10 cm square center region where an animal was started facing an open arm. The apparatus was illuminated by two LED bulbs, 60 watts each, hanging at a height of 2 m. An IP camera was used to record the location of rats and scoring was completed later using the MATLAB-based software. The statistical analysis was performed using GraphPad Prism. Significance was set at <0.005. The data collected from the open field were analyzed using One-way ANOVA (Tukey test or Dunnett test) and Unpaired t-test or Mann-Whitney.
# Data analysis and interpretation. The test is based on the natural aversion of rats for open areas and their preference for closed areas of the apparatus. The levels of anxiety in animals are assessed as the total time spent in the open and closed arms. Animals that spend more time in the open arms have lower levels of anxiety compared to animals that prefer closed arms. In addition, like in an open field test, a novel environment in which an animal finds itself evokes conflict between fear and a desire to explore this environment. Therefore, the data collected from these two tests may correlate in the distance travelled and the time spent in the outer and inner perimeter. It is considered normal if during a 5-minute test, animals spend most of their time in the closed arms but also make a few entries to the open arms to explore. Accordingly, an increase in open arm entries is interpreted as a decreased anxiety in the animal. FIG. 51A and FIG. 51B show an example of analysis of a rat trajectory in the experimental arena.
# On the 1st day of the experiment, rats were either operated to model hemi-parkinsonism or sham operated. From the 9th to the 18th day of the experiment, the animals were injected either deuterium-depleted water or the test substance, according to their allocation into groups, for 10 days. On the 8th day of the experiment (before initiation of treatment—apomorphine test I) and on the 21st day of the experiment (after the end of administering the test substance —apomorphine test II) the animals underwent an apomorphine test to analyze the development of hemi-parkinsonism which correlates with the number of destroyed dopaminergic neurons. In addition, a follow-up analysis of fecal water content was carried out, i.e., before the start of treatment on the 8th day after the operation, as well as on the 21st (after the end of treatment) and the 28th day (before autopsy). On the 24th day of the experiment, behavioral tests were carried out in all groups. All animals were weighed before autopsy.
substance,measurement,setting,value
^64Zn-enriched zinc aspartate [^64Zne-asp],body weight,[1]; 1st day,185.91 ± 19.90
same,body weight,[1]; 28th day,243.50 ± 27.52
same,"body weight changes, %",[1]; between 1st and 28th day,30** %
same,expression of phenotypic markers (CD80/86) by circulating phagocytes,[2],decrease
same,number of phagocytic cells in the peripheral blood,[2],did not have any effect
same,oxidative metabolism of circulating phagocytes,[2],did not have any significant effect
same,phagocytic activity of monocytes and granulocytes in the peripheral blood,[2],did not have any effect
same,Number of defecations,[3],5.375 ± 2.875
same,Number of groomings,[3],5.75 ± 2.121
same,Number of entries into closed arms,[4],5.875 ± 5.139
same,Number of entries into open arms,[4],5.375 ± 5.317
same,Time spent in closed arms,[4],256.1 ± 27.69 s
same,Time spent in open arms,[4],14 ± 14.12 s
same,"Total distance travelled, cm",[4],317.1 ± 138.4 cm
same,Total number of entries,[4],12.13 ± 10.02
